Test results reported in the supplement of paper PMC6078165.
Values are relative to the signal before dosing, not to a vehicle control; the signal also falls without drug.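 Labels refer to human fibroblasts, largely primary: uterine (C12385, HUF), lung (H6013), bone (Hs27A), adrenal (HADF), skin (WS1), plus mammary HMF and breast cancer-associated Hs343T. Cancer lines are basal-like or mesenchymal-like triple-negative breast cancer. The paper counts as hits responses shifting over 3x the replicate standard deviation. The tissue of the other fibroblasts is not given here.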

System: BT20
Assay: relative JC-1 red fluorescence (viability) vs pre-drug, coculture with fibroblast (fraction); higher = more viable cancer cells
Experimental: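 JC-1 labelled TNBC cells cocultured 1:1 (1,500 cells each) with CellTrace Violet stained primary or stromal fibroblasts in 384-well plates in FluoroBrite medium, treated with one of 42 anticancer drugs at 0.1, 1, 10 or 100 uM. JC-1 red fluorescence (mitochondrial integrity in cancer cells only) was read by plate reader every 8 h for 72 h. Values are normalised to each well's pre-drug value. The stock of one drug was tenfold lower, so its dose labels may be too high.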

O=C(O)CCCc1ccc(N(CCCl)CCCl)cc1 [Chlorambucil]
relative JC-1 red fluorescence
Conditions	8 h	16 h	24 h	32 h	40 h	48 h	56 h	64 h	72 h
0.1 µM, coculture fibroblast: C12385	0.899	0.874	0.879	0.843	0.793	0.784	0.776	0.778	0.772
0.1 µM, coculture fibroblast: H6013	0.917	0.892	0.9065	0.885	0.881	0.902	0.885	0.885	0.792
0.1 µM, coculture fibroblast: H6019	0.844	0.787	0.798	0.745	0.701	0.69	0.663	0.656	0.635
0.1 µM, coculture fibroblast: H6076	0.862	0.937	0.865	0.842	0.819	0.805	0.798	0.796	0.794
0.1 µM, coculture fibroblast: H6231	0.869	0.908	0.8374	0.7891	0.764	0.724	0.698	0.682	0.666
0.1 µM, coculture fibroblast: HADF	0.9318	0.887	0.88	0.839	0.833	0.819	0.848	0.872	0.863
0.1 µM, coculture fibroblast: HCFa	0.941	0.888	0.824	0.762	0.72	0.674	0.657	0.642	0.613
0.1 µM, coculture fibroblast: HCPF	0.921	0.932	0.8579	0.811	0.774	0.727	0.7	0.7075	0.6832
0.1 µM, coculture fibroblast: HHSteC	0.93	0.871	0.822	0.755	0.686	0.636	0.608	0.59	0.565
0.1 µM, coculture fibroblast: HMF	0.931	0.88	0.781	0.728	0.68	0.635	0.61	0.5934	0.57705
0.1 µM, coculture fibroblast: HPFa	0.903	0.867	0.866	0.795	0.77	0.728	0.711	0.695	0.6465
0.1 µM, coculture fibroblast: HUF	0.894	0.842	0.841	0.765	0.717	0.68	0.66	0.637	0.621
0.1 µM, coculture fibroblast: Hs5	0.947	0.931	0.873	0.835	0.811	0.7768	0.7585	0.735	0.7197
0.1 µM, coculture fibroblast: Hs27A	0.8759	0.925	0.846	0.883	0.813	0.888	0.822	0.786	0.863
0.1 µM, coculture fibroblast: Hs343T	0.893	0.896	0.783	0.715	0.654	0.602	0.545	0.527	0.501
0.1 µM, coculture fibroblast: WS1	0.843	0.801	0.829	0.78	0.753	0.747	0.745	0.738	0.741
1 µM, coculture fibroblast: C12385	0.899	0.808	0.766	0.701	0.641	0.624	0.599	0.581	0.567
1 µM, coculture fibroblast: H6013	0.973	0.891	0.829	0.791	0.743	0.722	0.721	0.705	0.684
1 µM, coculture fibroblast: H6019	0.8573	0.7842	0.756	0.703	0.66	0.643	0.599	0.572	0.545
1 µM, coculture fibroblast: H6076	0.858	0.909	0.787	0.742	0.692	0.676	0.661	0.661	0.647
1 µM, coculture fibroblast: H6231	0.888	0.905	0.784	0.719	0.661	0.612	0.578	0.557	0.53
1 µM, coculture fibroblast: HADF	0.73	0.887	0.882	0.867	0.839	0.807	0.781	0.748	0.708
1 µM, coculture fibroblast: HCFa	0.9456	0.8694	0.844	0.804	0.767	0.737	0.712	0.684	0.647
1 µM, coculture fibroblast: HCPF	0.868	0.938	0.853	0.8012	0.749	0.699	0.648	0.644	0.598
1 µM, coculture fibroblast: HHSteC	0.9298	0.838	0.82	0.738	0.687	0.651	0.617	0.597	0.562
1 µM, coculture fibroblast: HMF	0.861	0.897	0.754	0.693	0.638	0.592	0.558	0.523	0.494
1 µM, coculture fibroblast: HPFa	0.932	0.854	0.869	0.7776	0.744	0.699	0.67	0.637	0.567
1 µM, coculture fibroblast: HUF	0.923	0.8152	0.79635	0.731	0.683	0.647	0.637	0.622	0.612
1 µM, coculture fibroblast: Hs5	0.86	0.905	0.804	0.749	0.7075	0.663	0.621	0.588	0.559
1 µM, coculture fibroblast: Hs27A	0.815	0.828	0.908	0.921	0.874	0.848	0.817	0.786	0.735
1 µM, coculture fibroblast: Hs343T	0.728	0.9261	0.768	0.706	0.658	0.604	0.55	0.533	0.493
1 µM, coculture fibroblast: WS1	0.8805	0.851	0.81	0.7663	0.726	0.725	0.721	0.724	0.726
10 µM, coculture fibroblast: C12385	0.874	0.821	0.773	0.715	0.656	0.628	0.587	0.558	0.537
10 µM, coculture fibroblast: H6013	0.937	0.892	0.859	0.829	0.794	0.772	0.771	0.748	0.734
10 µM, coculture fibroblast: H6019	0.8671	0.826	0.824	0.78	0.733	0.706	0.676	0.65	0.623
10 µM, coculture fibroblast: H6076	0.9796	0.931	0.86	0.849	0.838	0.818	0.826	0.836	0.825
10 µM, coculture fibroblast: H6231	0.749	0.889	0.782	0.707	0.662	0.605	0.569	0.546	0.514
10 µM, coculture fibroblast: HADF	0.959	0.902	0.84	0.811	0.775	0.729	0.708	0.679	0.6477
10 µM, coculture fibroblast: HCFa	0.9283	0.86	0.799	0.75	0.707	0.663	0.634	0.607	0.572
10 µM, coculture fibroblast: HCPF	0.981	0.909	0.846	0.806	0.782	0.745	0.718	0.71	0.675
10 µM, coculture fibroblast: HHSteC	0.923	0.897	0.875	0.814	0.772	0.744	0.717	0.697	0.672
10 µM, coculture fibroblast: HMF	0.9433	0.868	0.7887	0.746	0.714	0.676	0.656	0.623	0.602
10 µM, coculture fibroblast: HPFa	0.9198	0.854	0.835	0.754	0.718	0.678	0.65	0.622	0.58
10 µM, coculture fibroblast: HUF	0.876	0.7899	0.743	0.663	0.615	0.568	0.542	0.524	0.503
10 µM, coculture fibroblast: Hs5	0.849	0.95	0.872	0.8227	0.77539	0.741	0.708	0.679	0.657
10 µM, coculture fibroblast: Hs27A	0.838	0.925	0.895	0.9	0.846	0.819	0.7933	0.76	0.709
10 µM, coculture fibroblast: Hs343T	0.884	0.902	0.78	0.713	0.655	0.599	0.547	0.52	0.481
10 µM, coculture fibroblast: WS1	0.856	0.8022	0.748	0.682	0.619	0.585	0.543	0.509	0.482
100 µM, coculture fibroblast: C12385	0.883	0.789	0.7062	0.643	0.582	0.544	0.506	0.475	0.444
100 µM, coculture fibroblast: H6013	0.964	0.89	0.877	0.835	0.792	0.775	0.769	0.746	0.728
100 µM, coculture fibroblast: H6019	0.879	0.808	0.75381	0.6837	0.6258	0.591	0.547	0.516	0.489
100 µM, coculture fibroblast: H6076	0.886	0.883	0.772	0.734	0.69	0.66	0.642	0.633	0.61
100 µM, coculture fibroblast: H6231	0.794	0.923	0.806	0.737	0.6737	0.609	0.565	0.532	0.497
100 µM, coculture fibroblast: HADF	0.808	0.925	0.889	0.873	0.862	0.84	0.827	0.804	0.782
100 µM, coculture fibroblast: HCFa	0.947	0.862	0.815	0.765	0.715	0.682	0.646	0.634	0.597
100 µM, coculture fibroblast: HCPF	0.888	0.894	0.78	0.725	0.664	0.61	0.56	0.542	0.499
100 µM, coculture fibroblast: HHSteC	0.925	0.826	0.802	0.723	0.657	0.621	0.584	0.563	0.529
100 µM, coculture fibroblast: HMF	0.955	0.916	0.754	0.692	0.629	0.581	0.535	0.494	0.4501
100 µM, coculture fibroblast: HPFa	0.854	0.917	0.919	0.836	0.812	0.762	0.743	0.717	0.675
100 µM, coculture fibroblast: HUF	0.938	0.855	0.832	0.764	0.721	0.681	0.66	0.651	0.636
100 µM, coculture fibroblast: Hs5	0.795	0.912	0.8169	0.76	0.719	0.68	0.647	0.622	0.606
100 µM, coculture fibroblast: Hs27A	0.826	0.853	0.8865	0.894	0.865	0.858	0.851	0.821	0.79
100 µM, coculture fibroblast: Hs343T	0.797	0.903	0.769	0.697	0.641	0.595	0.549	0.517	0.48
100 µM, coculture fibroblast: WS1	0.889	0.825	0.756	0.691	0.625	0.597	0.561	0.532	0.511
